# Reference: article PMC9249808, “A novel lipidic peptide with potential to promote balanced effector-regulatory T cell responses” (Scientific Reports, 2022)
# Assays:
# JAK2 = experiment: Kinase profiling, JAK2; assay type: biochemical; details: blank wells, baseline 0% kinase activity remaining
# Description: (§1) Non-cell-based kinase profiling assays were performed by Eurofins (France). All compounds were prepared to 50 × final assay concentration in 100% DMSO. This working stock of the compound was added to assay wells as the first component in the reaction, followed by the remaining components as detailed in the specific assay protocols below. In the standard KinaseProfiler service, there was no pre-incubation step between the compound and the kinase prior to initiation of the reaction. Control wells contained all components of the reaction, except the compound of interest; however, DMSO (at a final concentration of 2%) was included in these wells to control for solvent effects. […] The reference inhibitors for each kinase are indicated in the methods for each kinase assay. […] Kinase activities were assessed in the presence of compounds at a concentration range of 0.003 -10 uM and the following kinases were tested: c-Src, Lck, Jak1, Jak2, Tyk2, CaMKIV and HPK1 (MAP4K1). Reactions between IK14004, substrates and MgAcetate/[γ^33P-ATP] mixes for each respective kinase were stopped by the addition of phosphoric acid and reaction mixtures spotted on P30 filtermats for scintillation according to the detailed methods available from Eurofins. The activities of Lck and c-Src were also assessed in the presence of the unconjugated components of IK14004, i.e., […] […]
# c-Src = experiment: Kinase profiling, c-Src; assay type: biochemical; details: blank wells, baseline 0% kinase activity remaining
# Description: as §1
smiles,measurement,setting,value
"CN[C@@H]1C[C@H]2O[C@@](C)([C@@H]1OC)n1c3ccccc3c3c4c(c5c6ccccc6n2c5c31)C(=O)NC4 [staurosporine, reference compound]","JAK2 activity, reference inhibitor",JAK2,abolished kinase activity
same,"c-Src activity, reference inhibitor",c-Src,abolished kinase activity
